# Assay results: paper PMC5983119
# The exact form of at least one protein or probe is not confirmed. A weaker result is weaker than the reference pair of the same experiment.
# Target: TDP-43 F210I (RRM2mut) (mouse) (UniProt Q921F2)
# Assay: EMSA
# Conditions: reduced vs WT, 5% acrylamide gel, protein 0.25-2 ug with 32P RNA in unspecified binding buffer, pH and temperature not given, recombinant protein, protein details: GST, label: 32P (gamma-32P)
sequence,measurement,value
UGUGUGUGUGUG [(UG)6 RNA],binding result,binds more weakly
